Reference: PubChem BioAssay AID1259424 (University of Nebraska Medical Center, 2018)

Aim: 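Seek colon cancer survival genes behaving like KSR1, using a six-gene signature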 (primary screen)
Cells: human HCT116 colon cancer cells
Knock-down reagent: siRNA pool against human genes, 50 nM
Measurement: 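Six signature mRNAs by branched-DNA multiplex assay, scaled to two housekeeping genes and non-targeting median, log2; matched to mean KSR1 knockdown profile by Pearson correlation and euclidean distance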
Direction: mean correlation with KSR1 profile: higher = expression change more like KSR1 knockdown; mean distance from KSR1 profile: higher = expression change less like KSR1 knockdown
The whole screen tested about 14,000 reagents; below is a part drawn at random. 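Higher correlation or smaller distance means closer resemblance to KSR1 loss; control wells, including KSR1 knockdowns, recur on many plates.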 Further read-outs or replicates are left out here. The record does not give: the time to read-out.

What did the screen give for HOXB6?
mean correlation with KSR1 profile: -0.0417; mean distance from KSR1 profile: 4.19

For PDE4B, how do the results read?
mean correlation with KSR1 profile: 0.704; mean distance from KSR1 profile: 0.688

What is on record for NUP107?
mean correlation with KSR1 profile: -0.0844; mean distance from KSR1 profile: 1.28

With TBC1D8B, what does the deposit list?
mean correlation with KSR1 profile: -0.491; mean distance from KSR1 profile: 2.88

For AGL, what does the deposit list?
mean correlation with KSR1 profile: -0.483; mean distance from KSR1 profile: 1.9

What did the screen give for LINC01949?
mean correlation with KSR1 profile: -0.377; mean distance from KSR1 profile: 3.01

What is on record for RPL29?
mean correlation with KSR1 profile: -0.116; mean distance from KSR1 profile: 2.33

For GDF1, how do the results read?
mean correlation with KSR1 profile: 0.243; mean distance from KSR1 profile: 2.85

Which result is listed for IFNA10?
mean correlation with KSR1 profile: 0.553; mean distance from KSR1 profile: 0.886

For HOXB4, what was measured?
mean correlation with KSR1 profile: -0.162; mean distance from KSR1 profile: 2.18

What is on record for YY1?
mean correlation with KSR1 profile: -0.452; mean distance from KSR1 profile: 3.26

With NDUFA1, how do the results read?
mean correlation with KSR1 profile: -0.191; mean distance from KSR1 profile: 1.85

Which result is listed for MYLK3?
mean correlation with KSR1 profile: -0.463; mean distance from KSR1 profile: 4.24

4 entries from above, reduced to “mean correlation with KSR1 profile”.
AGL	-0.483
LINC01949	-0.377
RPL29	-0.116
GDF1	0.243

Additional reagents follow.
What did the screen give for LRTM1?
mean correlation with KSR1 profile: -0.201; mean distance from KSR1 profile: 5.12

What did the screen give for CLCC1?
mean correlation with KSR1 profile: 0.265; mean distance from KSR1 profile: 1.02

For PSPHP1, how do the results read?
mean correlation with KSR1 profile: -0.323; mean distance from KSR1 profile: 1.42

For TRPC7, what does the deposit list?
mean correlation with KSR1 profile: -0.153; mean distance from KSR1 profile: 3.25

For ROR2, what does the deposit list?
mean correlation with KSR1 profile: -0.158; mean distance from KSR1 profile: 2.07

For B4GALNT1, how do the results read?
mean correlation with KSR1 profile: 0.25; mean distance from KSR1 profile: 3.36

With NR2F6, what was measured?
mean correlation with KSR1 profile: -0.523; mean distance from KSR1 profile: 5.3

For DPY30, what was measured?
mean correlation with KSR1 profile: 0.241; mean distance from KSR1 profile: 1.64

Which result is listed for MAD1L1?
mean correlation with KSR1 profile: 0.322; mean distance from KSR1 profile: 2.18

Which result is listed for DCAF5?
mean correlation with KSR1 profile: 0.655; mean distance from KSR1 profile: 1.71

How did the screen score DUSP9?
mean correlation with KSR1 profile: 0.107; mean distance from KSR1 profile: 3.49

With FCN3, how do the results read?
mean correlation with KSR1 profile: -0.694; mean distance from KSR1 profile: 2.83

For PIEZO2, what was measured?
mean correlation with KSR1 profile: -0.591; mean distance from KSR1 profile: 1.95

Which result is listed for CCDC87?
mean correlation with KSR1 profile: -0.832; mean distance from KSR1 profile: 5.7

For HGS, how do the results read?
mean correlation with KSR1 profile: 0.111; mean distance from KSR1 profile: 2.19
